We go through two substances from publication doi:10.1101/2022.11.15.516651.

Amino acid sequences for entries named in this document (tags omitted). A change or cut given only in a name is not applied to a line headed by its entry. Residues count along the entry.
UniProt P08195, 66-630, stated change not applied: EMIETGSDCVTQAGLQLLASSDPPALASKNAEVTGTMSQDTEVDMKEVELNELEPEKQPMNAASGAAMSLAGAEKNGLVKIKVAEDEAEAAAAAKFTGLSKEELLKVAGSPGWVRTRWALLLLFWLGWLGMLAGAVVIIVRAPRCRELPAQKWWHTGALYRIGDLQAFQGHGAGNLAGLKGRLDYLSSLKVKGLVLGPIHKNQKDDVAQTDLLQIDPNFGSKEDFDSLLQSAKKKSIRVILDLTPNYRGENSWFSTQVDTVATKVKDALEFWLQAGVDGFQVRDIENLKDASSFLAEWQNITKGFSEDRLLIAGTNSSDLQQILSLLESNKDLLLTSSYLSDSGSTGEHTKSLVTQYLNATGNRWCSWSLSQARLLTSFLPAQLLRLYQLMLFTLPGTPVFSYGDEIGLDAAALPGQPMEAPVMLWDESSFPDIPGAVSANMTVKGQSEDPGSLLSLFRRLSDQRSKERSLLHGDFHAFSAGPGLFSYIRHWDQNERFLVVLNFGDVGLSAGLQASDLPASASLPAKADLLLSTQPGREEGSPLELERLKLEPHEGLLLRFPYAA
UniProt P08195, whole entry, looked up, stated change not applied: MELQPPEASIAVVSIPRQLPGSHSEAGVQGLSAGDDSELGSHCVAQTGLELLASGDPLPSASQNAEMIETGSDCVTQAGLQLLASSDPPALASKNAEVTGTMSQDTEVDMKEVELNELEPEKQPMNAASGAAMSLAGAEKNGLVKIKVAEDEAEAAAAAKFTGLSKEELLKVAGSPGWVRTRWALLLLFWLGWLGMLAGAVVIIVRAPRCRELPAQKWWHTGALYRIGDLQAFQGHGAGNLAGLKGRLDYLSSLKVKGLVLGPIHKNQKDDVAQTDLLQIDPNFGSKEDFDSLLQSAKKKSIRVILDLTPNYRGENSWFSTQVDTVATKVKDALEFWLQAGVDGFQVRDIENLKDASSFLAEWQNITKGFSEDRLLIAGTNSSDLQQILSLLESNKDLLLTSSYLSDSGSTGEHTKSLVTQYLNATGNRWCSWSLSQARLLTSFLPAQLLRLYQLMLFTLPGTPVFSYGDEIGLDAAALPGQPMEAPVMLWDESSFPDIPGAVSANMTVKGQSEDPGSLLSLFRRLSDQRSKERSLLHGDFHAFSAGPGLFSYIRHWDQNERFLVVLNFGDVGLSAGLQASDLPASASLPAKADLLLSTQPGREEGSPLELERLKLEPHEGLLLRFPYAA

The target in experiment [1] is FLAG-SLC3A2 WTseq (human) (UniProt P08195). Description: affinity purification with mass spectrometry.
The target in experiment [2] is FLAG-SLC3A2 A273N (human) (UniProt P08195). The experiment in a line: affinity purification with mass spectrometry.

These are yes or no findings as the source states them, for the method shown. In cells and extracts the contact can be indirect. A yes stands for co-enrichment or nearness to the bait. Other partners may have been found.

For HSP90AA1 (from UniProt P07900 1-732), the binding entry in experiment [1] and in experiment [2] was “binds” throughout.

For the substance ATP1B3 (from UniProt P54709 1-279), the binding result in experiment [1] is “binds”.
